Measured values as given in PMC5733026.
Results are given in words; binding and its absence hold for the method and conditions named. In cells and extracts the contact can be indirect. Some results given as binding are weak or reduced against the parent protein; the word gives no strength.

The chains behind the UniProt entries cited, without tags or fusion partners. Where a name states a change or a piece, a line headed by the entry shows the natural chain unless it says otherwise. A line that says so, or that is headed by a name, gives the form on record, which may keep a tag or linker. Residues count along the entry.
wild-type human 69-kDa choline acetyltransferase (ChAT) (P28329, residues 119-748): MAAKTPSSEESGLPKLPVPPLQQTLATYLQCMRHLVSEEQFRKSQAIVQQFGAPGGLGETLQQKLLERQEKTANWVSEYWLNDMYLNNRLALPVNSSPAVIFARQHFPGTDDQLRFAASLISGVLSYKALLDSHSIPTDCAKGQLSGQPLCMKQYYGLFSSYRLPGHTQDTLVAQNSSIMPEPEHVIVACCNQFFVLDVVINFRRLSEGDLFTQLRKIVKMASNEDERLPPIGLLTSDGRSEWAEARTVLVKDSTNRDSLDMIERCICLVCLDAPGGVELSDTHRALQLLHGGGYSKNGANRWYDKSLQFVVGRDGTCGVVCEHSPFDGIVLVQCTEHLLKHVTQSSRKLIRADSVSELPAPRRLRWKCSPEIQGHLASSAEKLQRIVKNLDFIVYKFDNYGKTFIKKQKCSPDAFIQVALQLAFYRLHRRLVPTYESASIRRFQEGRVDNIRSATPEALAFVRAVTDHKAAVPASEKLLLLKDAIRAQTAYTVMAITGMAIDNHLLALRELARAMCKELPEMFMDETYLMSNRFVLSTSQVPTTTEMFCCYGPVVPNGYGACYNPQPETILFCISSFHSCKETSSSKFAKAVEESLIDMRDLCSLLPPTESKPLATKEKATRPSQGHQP
P17A/P19A-ChAT (human 69-kDa choline acetyltransferase, proline-rich motif mutant) (P28329, form named): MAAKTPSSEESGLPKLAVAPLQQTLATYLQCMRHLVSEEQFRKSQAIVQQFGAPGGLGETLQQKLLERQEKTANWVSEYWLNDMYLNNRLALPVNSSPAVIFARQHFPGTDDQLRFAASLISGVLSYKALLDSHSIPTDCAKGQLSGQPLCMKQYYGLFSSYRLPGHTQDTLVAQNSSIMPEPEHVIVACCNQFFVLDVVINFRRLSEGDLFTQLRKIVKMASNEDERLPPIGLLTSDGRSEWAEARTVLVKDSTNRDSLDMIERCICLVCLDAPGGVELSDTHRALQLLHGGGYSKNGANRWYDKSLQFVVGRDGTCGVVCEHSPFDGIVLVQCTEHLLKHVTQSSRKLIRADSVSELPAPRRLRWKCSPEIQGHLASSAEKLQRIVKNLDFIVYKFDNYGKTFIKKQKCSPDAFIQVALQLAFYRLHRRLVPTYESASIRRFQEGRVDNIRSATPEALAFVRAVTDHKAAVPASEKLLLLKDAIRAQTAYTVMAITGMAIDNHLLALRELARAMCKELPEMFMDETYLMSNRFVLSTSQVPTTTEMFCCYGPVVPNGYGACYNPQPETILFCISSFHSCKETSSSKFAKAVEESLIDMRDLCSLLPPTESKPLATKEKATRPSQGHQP
A513T-ChAT (human 69-kDa choline acetyltransferase, CMS-related mutant) (P28329, form named): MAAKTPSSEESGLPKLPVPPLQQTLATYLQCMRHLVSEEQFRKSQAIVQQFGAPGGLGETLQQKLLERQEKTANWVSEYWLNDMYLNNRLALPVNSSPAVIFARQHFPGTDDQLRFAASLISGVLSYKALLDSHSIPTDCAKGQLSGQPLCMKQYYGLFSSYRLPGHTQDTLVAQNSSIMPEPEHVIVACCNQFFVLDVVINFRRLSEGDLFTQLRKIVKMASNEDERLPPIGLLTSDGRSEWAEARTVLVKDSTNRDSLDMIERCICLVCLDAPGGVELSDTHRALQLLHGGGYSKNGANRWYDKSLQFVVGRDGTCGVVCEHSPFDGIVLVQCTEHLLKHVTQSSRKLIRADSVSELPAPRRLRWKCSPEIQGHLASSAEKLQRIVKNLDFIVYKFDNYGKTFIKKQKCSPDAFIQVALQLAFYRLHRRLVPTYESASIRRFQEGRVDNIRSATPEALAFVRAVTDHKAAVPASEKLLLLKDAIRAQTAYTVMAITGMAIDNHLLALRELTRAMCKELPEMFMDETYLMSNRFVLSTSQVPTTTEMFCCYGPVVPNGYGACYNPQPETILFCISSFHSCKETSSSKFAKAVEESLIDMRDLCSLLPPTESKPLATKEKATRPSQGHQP
V18M-ChAT (human 69-kDa choline acetyltransferase, CMS-related mutant) (P28329, form named): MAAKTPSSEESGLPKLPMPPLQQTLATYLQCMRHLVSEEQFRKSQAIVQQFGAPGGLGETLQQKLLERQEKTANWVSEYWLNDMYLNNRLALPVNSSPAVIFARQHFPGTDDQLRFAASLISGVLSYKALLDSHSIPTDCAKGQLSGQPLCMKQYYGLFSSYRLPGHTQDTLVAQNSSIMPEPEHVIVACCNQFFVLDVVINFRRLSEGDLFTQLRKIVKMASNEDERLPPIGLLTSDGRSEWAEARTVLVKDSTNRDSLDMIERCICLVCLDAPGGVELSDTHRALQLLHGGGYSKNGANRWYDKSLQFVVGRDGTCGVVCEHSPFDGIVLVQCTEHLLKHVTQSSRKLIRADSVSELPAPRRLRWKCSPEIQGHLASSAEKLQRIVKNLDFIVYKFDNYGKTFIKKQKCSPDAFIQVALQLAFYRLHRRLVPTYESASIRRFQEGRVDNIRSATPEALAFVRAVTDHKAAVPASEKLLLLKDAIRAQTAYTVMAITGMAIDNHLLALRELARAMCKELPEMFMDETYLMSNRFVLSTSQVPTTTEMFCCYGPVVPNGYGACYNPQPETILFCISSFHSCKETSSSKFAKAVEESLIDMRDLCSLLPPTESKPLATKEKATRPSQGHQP
UniProt Q9WUD1: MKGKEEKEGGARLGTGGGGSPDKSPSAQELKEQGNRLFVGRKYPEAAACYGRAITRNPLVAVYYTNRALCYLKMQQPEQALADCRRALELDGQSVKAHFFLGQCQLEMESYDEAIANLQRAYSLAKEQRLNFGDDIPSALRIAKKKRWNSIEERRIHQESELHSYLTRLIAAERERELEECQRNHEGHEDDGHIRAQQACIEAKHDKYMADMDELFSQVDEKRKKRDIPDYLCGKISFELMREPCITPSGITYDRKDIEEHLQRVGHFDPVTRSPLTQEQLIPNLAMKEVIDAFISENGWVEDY
UniProt P11142: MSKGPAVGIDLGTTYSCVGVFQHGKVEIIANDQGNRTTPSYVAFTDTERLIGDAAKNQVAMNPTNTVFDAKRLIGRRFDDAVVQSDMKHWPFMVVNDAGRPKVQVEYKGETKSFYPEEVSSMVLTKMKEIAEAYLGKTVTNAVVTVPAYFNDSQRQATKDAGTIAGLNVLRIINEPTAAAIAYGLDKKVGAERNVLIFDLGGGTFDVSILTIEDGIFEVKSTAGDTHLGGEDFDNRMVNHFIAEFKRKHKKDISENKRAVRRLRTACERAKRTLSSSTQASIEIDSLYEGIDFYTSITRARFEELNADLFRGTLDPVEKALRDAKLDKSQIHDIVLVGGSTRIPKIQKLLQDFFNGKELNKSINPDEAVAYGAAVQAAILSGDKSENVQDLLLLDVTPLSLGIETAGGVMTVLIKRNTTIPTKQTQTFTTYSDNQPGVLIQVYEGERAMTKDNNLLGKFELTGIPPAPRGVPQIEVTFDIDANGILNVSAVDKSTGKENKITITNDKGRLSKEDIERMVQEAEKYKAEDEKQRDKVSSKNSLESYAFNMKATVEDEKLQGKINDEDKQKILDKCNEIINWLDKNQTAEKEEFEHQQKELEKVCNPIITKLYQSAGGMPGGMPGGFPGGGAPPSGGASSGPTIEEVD
UniProt Q9UNE7: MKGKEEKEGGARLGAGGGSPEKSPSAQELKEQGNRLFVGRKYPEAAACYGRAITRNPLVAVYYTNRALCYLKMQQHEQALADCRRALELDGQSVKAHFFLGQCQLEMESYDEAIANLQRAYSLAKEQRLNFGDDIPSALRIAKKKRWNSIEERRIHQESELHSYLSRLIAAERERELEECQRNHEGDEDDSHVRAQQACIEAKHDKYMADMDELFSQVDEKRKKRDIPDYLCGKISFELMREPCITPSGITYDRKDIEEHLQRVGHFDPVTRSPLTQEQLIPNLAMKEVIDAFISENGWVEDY

Columns and labels:
[1] = target: wild-type human 69-kDa choline acetyltransferase (ChAT) (human) (UniProt P28329); assay: co-IP; SN56 cells expressing untagged ChAT; lysate (4 mg protein; 10 mM HEPES pH 7.4, 5 mM MgCl2, 1 mM EGTA, 50 mM NaCl, 5% glycerol, 0.5% Triton X-100) with anti-ChAT antibody CTab 18 h at 4°C, protein-G Dynabeads; blots for endogenous HSC70, HSP90, CHIP
[2] = target: P17A/P19A-ChAT (human 69-kDa choline acetyltransferase, proline-rich motif mutant) (human) (UniProt P28329); assay: as above
[3] = target: A513T-ChAT (human 69-kDa choline acetyltransferase, CMS-related mutant) (human) (UniProt P28329); assay: as above
[4] = target: V18M-ChAT (human 69-kDa choline acetyltransferase, CMS-related mutant) (human) (UniProt P28329); assay: as above
[5] = target: wild-type human 69-kDa choline acetyltransferase (ChAT) (human) (UniProt P28329); assay: proximity ligation; Duolink in situ PLA in formalin-fixed, permeabilised SN56 cells expressing wild-type ChAT; goat anti-ChAT with mouse anti-HSC70, mouse anti-HSP90 or rabbit anti-CHIP; confocal microscopy
[6] = target: wild-type human 69-kDa choline acetyltransferase (ChAT) (human) (UniProt P28329); assay: co-IP; HEK293 cells expressing untagged ChAT; lysate (4 mg protein; 10 mM HEPES pH 7.4, 5 mM MgCl2, 1 mM EGTA, 50 mM NaCl, 5% glycerol, 0.5% Triton X-100) with anti-ChAT antibody CTab 18 h at 4°C, protein-G Dynabeads; blots for endogenous HSC70, HSP70, HSP90
[7] = target: P17A/P19A-ChAT (human 69-kDa choline acetyltransferase, proline-rich motif mutant) (human) (UniProt P28329); assay: as above
[8] = target: wild-type human 69-kDa choline acetyltransferase (ChAT) (human) (UniProt P28329); assay: co-IP; SN56 cells co-expressing untagged ChAT and FLAG-CHIP; lysate (2 mg protein; 10 mM HEPES pH 7.4, 5 mM MgCl2, 1 mM EGTA, 50 mM NaCl, 5% glycerol, 0.5% Triton X-100) with anti-ChAT antibody CTab 18 h at 4°C, protein-G Dynabeads; anti-FLAG blot
[9] = target: P17A/P19A-ChAT (human 69-kDa choline acetyltransferase, proline-rich motif mutant) (human) (UniProt P28329); assay: as above
[10] = target: A513T-ChAT (human 69-kDa choline acetyltransferase, CMS-related mutant) (human) (UniProt P28329); assay: as above
[11] = target: V18M-ChAT (human 69-kDa choline acetyltransferase, CMS-related mutant) (human) (UniProt P28329); assay: as above

Measured: binding

C-terminus of HSC70-interacting protein (CHIP) (endogenous, SN56) (from UniProt Q9WUD1 1-304) (enzyme)
binds: [1] | [2] | [3] | [4] | [5]

heat shock cognate 71 kDa protein (HSC70) (endogenous, HEK293) (from UniProt P11142 1-646)
binds: [6] | [7]

FLAG-tagged C-terminus of HSC70-interacting protein (FLAG-CHIP) (from UniProt Q9UNE7 1-303) (enzyme)
binds: [8] | [9] | [10] | [11]
